# Test results reported in the supplement of paper PMC8256030.
# “And” between values parts separate entries of the source, which are not always exact repeats. Identical values can stand only once. Counter-ions that a name gives are not always drawn. The list shows a part of the results. Repeats in this data set agree poorly, so a single value says little.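 HEK293T cells were given each compound shortly before transfection with a reporter in which red mCherry is followed by the SARS-CoV-2 frameshift element and then GFP in the −1 frame, so GFP appears only after frameshifting.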
# System: HEK293T
# Assay: percent viability (nuclei count) relative to control; higher = more viable cells
# Settings: 10 µM; 24 h
row,Structure (SMILES),percent viability
1,CN(C)CCOC(C)(c1ccccc1)c1ccc(Cl)cc1 (centres undefined) [chlorphenoxamine],277%
2,CCCCCCCCCc1ccc(OCCOCCOCCOCCOCCOCCOCCOCCOCCO)cc1,86.4%
3,CCOC(=O)C1=C[C@@H](OC(CC)CC)[C@H](NC(C)=O)[C@@H](N)C1 [oseltamivir],203%
4,CCC(=O)c1c(O)cc(O)cc1O [flopropione],212%
5,O=C(CCCN1CCC(O)(c2ccc(Br)cc2)CC1)c1ccc(F)cc1 [bromperidol],181%
6,CCN(CC)CCNC(=O)c1ccc(NC(C)=O)cc1 [acecainide],152%
7,C=CC1=C(C(=O)O)N2C(=O)[C@@H](NC(=O)/C(=N\O)c3csc(N)n3)[C@H]2SC1,302%
8,CCN(CC)CCN1C(=O)c2c(c3c4cccc(Cl)c4n([C@@H]4O[C@H](CO)[C@@H](OC)[C@H](O)[C@H]4O)c3c3[nH]c4c(Cl)cccc4c23)C1=O [becatecarin],8.61%
9,CCCc1nc(C)c2c(=O)nc(-c3cc(S(=O)(=O)N4CCN(CC)CC4)ccc3OCC)[nH]n12,168%
10,C[Se]CCC(N)C(=O)O (centres undefined),331%
11,CCCN[C@H]1CCc2nc(N)sc2C1 [pramipexole],86.4%
12,CCC(=O)OCC(=O)[C@@]1(OC(=O)CC)[C@@H](C)C[C@H]2[C@@H]3CCC4=CC(=O)C=C[C@]4(C)[C@@]3(Cl)[C@@H](O)C[C@@]21C [Vanceril],307%
13,CC1(C)S[C@@H]2[C@H](NC(=O)COc3ccccc3)C(=O)N2[C@H]1C(=O)O [Pencillin V],234%
14,Cc1ncc([N+](=O)[O-])n1CC(O)CCl (centres undefined) [ornidazole],245%
15,CC1(C)S[C@@H]2[C@H](NC(=O)[C@H](NC(=O)N3CCNC3=O)c3ccccc3)C(=O)N2[C@H]1C(=O)O [Azlin],204% and 213%
16,c1ccc([C@H]2CN3CCSC3=N2)cc1,147%
17,COc1ccc2c(c1)C(=O)N(CCc1ccc(S(=O)(=O)NC(=O)NC3CCCCC3)cc1)C(=O)C2(C)C [gliquidone],131%

row,Structure (SMILES),percent viability
1,COc1nsnc1NS(=O)(=O)c1ccc(N)cc1 [sulfametrole],444%
2,Cc1ncc(CO)c(CO)c1O [pyridoxine],304%
3,CC(C)Cc1ccc(C(C)C(=O)O)cc1 (centres undefined) [ibuprofen],235% and 174%
4,CCCCNc1ccc(C(=O)OCCOCCOCCOCCOCCOCCOCCOCCOCCOC)cc1 [benzonatate],321%
5,CC(=O)c1ccc(S(=O)(=O)NC(=O)NC2CCCCC2)cc1 [acetohexamide],284%
6,CN(C)CCCN1c2ccccc2Sc2ccc(C(F)(F)F)cc21 [triflupromazine],443%
7,CC1=C(/C=C/C(C)=C/C=C/C(C)=C/CO)C(C)(C)CCC1,96.5%
8,C=C(NC(=O)C(=C)NC(=O)c1csc(C2=NC3c4csc(n4)C4NC(=O)c5csc(n5)C(C(C)(O)C(C)O)NC(=O)C5CSC(=N5)/C(=C\C)NC(=O)C(C(C)O)NC(=O)c5csc(n5)C3(CC2)NC(=O)C(C)NC(=O)C(=C)NC(=O)C(C)NC(=O)C(C(C)CC)NC2C=Cc3c(C(C)O)cc(nc3C2O)C(=O)OC4C)n1)C(N)=O (centres undefined),155%
9,CCN(CC)CCCC(C)Nc1ccnc2cc(Cl)ccc12 (centres undefined) [chloroquine],113%
10,CN(C)CCc1c[nH]c2ccc(C[C@H]3COC(=O)N3)cc12 [Zolmitriptan],187%
11,CC[C@@]1(O)C(=O)OCc2c1cc1n(c2=O)Cc2cc3c(CN(C)C)c(O)ccc3nc2-1 [Topotecan·HCl],146%
12,CC1(C)CCC(C)(C)c2cc(NC(=O)c3ccc(C(=O)O)cc3)ccc21 [tamibarotene],277%
13,CCOC(=O)C1=C(C)NC(CN(C)C)=C(C(=O)OCC)C1c1ccccc1/C=C/C(=O)OC(C)(C)C (centres undefined) [teludipine],336%
14,CN1CCN2c3ccccc3Cc3ccccc3C2C1 (centres undefined),400%
15,C[C@@H]1C/C=C/C=C/C=C/C=C/[C@H](O[C@@H]2O[C@H](C)[C@@H](O)[C@H](N)[C@@H]2O)C[C@@H]2O[C@](O)(C[C@@H](O)C[C@H]3O[C@@H]3/C=C/C(=O)O1)C[C@H](O)[C@H]2C(=O)O [Natacyn],289%
16,CCOC(=O)O[C@]1(C(=O)COC(=O)CC)CC[C@H]2[C@@H]3CCC4=CC(=O)C=C[C@]4(C)[C@H]3[C@@H](O)C[C@@]21C [Prednicarbate],188%
17,c1ccc2c(c1)OCC(CN1CCCCC1)O2 (centres undefined) [piperoxan],130%
